Data as given in PubChem BioAssay AID1259254 (NCATS, 2017).

Assay: 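Gene knock-downs that lead to re-replication, shown by excess G2 DNA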 (primary screen)
System: human HCT116 colorectal cancer cells
Reagents: single siRNA against human genes
Timing: 3 days
Measurement: 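Imaged Hoechst DNA stain sorts each cell into a cycle phase by DNA amount; per plate, G2 fraction set to 0% for non-targeting and 100% for GMNN siRNA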
Direction: G2 robust z-score and G2 cells, % of GMNN control: higher = more G2 cells, more excess DNA replication
Active means: 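Active siRNAs have a G2 robust z of 5 or more median absolute deviations over the median, which in these data means about 38% or higher of GMNN control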
In all, the deposit lists about 59,000 reagents; shown is an unselected part. Over the whole deposit, about 1,550 (2.6%) got an active call. 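G2 share is only a proxy for re-replication; each gene was hit by three separate siRNAs, and active genes were retested.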 A number with no mark means an inactive call. The numbers tell different reagents against one gene apart. Not all columns of the deposit are shown. Not stated in the record: the amount of reagent.

Target gene	reagent	G2 robust z-score	G2 cells, % of GMNN control
OR6A2	1	2.52	20.7
OR6A2	2	-0.352	0.493
OR6A2	3	-0.728	-2.16
CFB	1	-0.915	-3.47
CFB	2	0.563	6.93
CFB	3	-0.297	0.878
CMTM6	1	0.635	7.43
CMTM6	2	6.07 (active)	45.7
CMTM6	3	0.152	4.03
GNB5	1	1.59	14.2
GNB5	2	0.154	4.05
GNB5	3	-0.751	-2.32
BAG6	1	-0.49	-0.479
BAG6	2	0.769	8.38
BAG6	3	0.36	5.5
MESTP3	1	1.61	14.3
MESTP3	2	0.141	3.96
MESTP3	3	1.65	14.6
FOXD4L1	1	0.325	5.25
FOXD4L1	2	-0.284	0.971
FOXD4L1	3	-0.284	0.967
SH2D5	1	1.54	13.8
SH2D5	2	-1.08	-4.6
SH2D5	3	-0.374	0.338
ZFAND6	1	-0.928	-3.56
ZFAND6	2	-0.774	-2.48
ZFAND6	3	0.455	6.17
TRIAP1	1	0.508	6.54
TRIAP1	2	-0.955	-3.75
TRIAP1	3	-1.08	-4.66
DDX5	1	-0.312	0.771
DDX5	2	-0.526	-0.734
DDX5	3	-0.586	-1.15
ZBTB14	1	0.322	5.23
ZBTB14	2	-0.208	1.5
ZBTB14	3	3.78	29.6
CHRNA9	1	-0.672	-1.76
CHRNA9	2	0.373	5.59
CHRNA9	3	0.562	6.92
PIK3AP1	1	1.27	11.9
PIK3AP1	2	-0.813	-2.76
PIK3AP1	3	-0.697	-1.93
PTPRE	1	1.22	11.6
PTPRE	2	-0.465	-0.306
PTPRE	3	-0.662	-1.69
PSKH1	1	-0.404	0.124
PSKH1	2	-0.25	1.21
PSKH1	3	-0.749	-2.3
PDE8A	1	-0.71	-2.03
PDE8A	2	-0.543	-0.855
PDE8A	3	-1.01	-4.1
KRT36	1	-0.0261	2.78
KRT36	2	1.83	15.8
KRT36	3	-0.399	0.163
AVPR1B	1	0.374	5.6
AVPR1B	2	5.33 (active)	40.5
AVPR1B	3	0.267	4.84
SPRY3	1	-0.958	-3.77
SPRY3	2	0.0552	3.36
SPRY3	3	-1.16	-5.2
PKIG	1	0.221	4.52
PKIG	2	-0.772	-2.47
PKIG	3	2.15	18.1
PKP3	1	-0.896	-3.34
PKP3	2	2.91	23.4
PKP3	3	-1.16	-5.22
PPIAP66	1	-0.89	-3.29
PPIAP66	2	3.44	27.2
PPIAP66	3	-0.776	-2.49
ADCY3	1	0.00178	2.98
ADCY3	2	0.198	4.36
ADCY3	3	-0.53	-0.76
UBIAD1	1	0.439	6.06
UBIAD1	2	-0.154	1.88
UBIAD1	3	1.36	12.5
CDH26	1	-0.862	-3.1
CDH26	2	0.24	4.66
CDH26	3	-0.874	-3.18
HIPK2	1	-0.408	0.0965
HIPK2	2	-0.636	-1.51
HIPK2	3	-0.301	0.847
HIPK2	4	0.286	4.98
HIPK2	5	-0.877	-3.21
HIPK2	6	0.408	5.84
ADAMTS13	1	1.24	11.7
ADAMTS13	2	-0.116	2.15
ADAMTS13	3	0.817	8.71

Records listed above marked active (2):
Target gene	reagent	G2 robust z-score	G2 cells, % of GMNN control
CMTM6	2	6.07 (active)	45.7
AVPR1B	2	5.33 (active)	40.5
